# Measurements taken from PubChem BioAssay AID1347131 (National Center for Advancing Translational Sciences (NCATS), 2019).
# Out of some 410,000 compounds screened, about 2,000 (0.49%) were called active. The inconclusive results got no clear call from the source; some entries with a clear call stand among them for comparison. Calls come from the whole dose curve; tested in HEK293 reporter line. A potency beside an inconclusive call is a rough fit, not a confirmed value.
# Assay: qHTS Assay for Foot and Mouth Disease Virus Antivirals: Primary Screen against the MLPCN compound library; note: nearly all actives have a fitted effect of over 55% in size
# Details: FMDV antiviral cell-based qHTS; activity, negative = inhibition: at 57.9 µM (top of the series)
# Potency is the fitted concentration of half-maximal effect.
SMILES,Potency,"activity, negative = inhibition"
CCCCc1c(-c2ccccc2OC)ncn1CCc1ccccc1OC,"inconclusive: 22.4 µM [inhibitor, partial curve, poor fit]",–
COc1cccc(C2=CC(c3cc(OC)ccc3OC)n3nnnc3N2)c1 (centres undefined),–,inconclusive: -39.7% [inhibitor]
Cc1ccccc1CN1CCN(Cc2ccccc2C(F)(F)F)CC1,"inconclusive: 17.8 µM [inhibitor, single point]",–
CCN1C(=NCCCOC(C)C)N[C@@H](CCc2ccccc2)[C@H](C(=O)NCCCOC(C)C)[C@H]1C,"inconclusive: 8.91 µM [inhibitor, partial curve, poor fit]",–
CCOc1ccc(N2C(=O)S/C(=C\c3cc(OC)c(OC)c(OC)c3)C2=O)cc1,active: 10 µM,–
CCN(CC)S(=O)(=O)c1ccc(Cl)c(NC(=S)NC(=O)C2CCCC2)c1,"inconclusive: 20 µM [inhibitor, partial curve, poor fit]",–
Cc1ccccc1-c1nc(CN2CCC(C(=O)NC3CCN(Cc4ccccc4)CC3)CC2)c(C)o1,inactive,–
Cc1cccc(NC(=O)Nc2ccc(Cl)c(Cl)c2)n1,"inconclusive: 12.6 µM [inhibitor, single point]",–
c1ccc(-c2noc(-c3ccc4c(c3)OCO4)n2)cc1,"inconclusive: 14.1 µM [inhibitor, partial curve, poor fit]",–
COc1ccc(/C=N/Nc2cc(C)nc(-n3nc(C)cc3C)n2)cc1,"inconclusive: 31.6 µM [inhibitor, partial curve, poor fit]",–
COc1ccc(S(=O)(=O)N2CCOC2CNC(=O)C(=O)NCCc2c[nH]c3ccccc23)cc1 (centres undefined),"inconclusive: 22.4 µM [inhibitor, partial curve, poor fit]",–
CN(c1ccc(-c2csc(NC(=O)C3CC(=O)N(Cc4ccco4)C3)n2)cc1)S(C)(=O)=O (centres undefined),"inconclusive: 22.4 µM [inhibitor, partial curve, poor fit]",–
CCCC(O)c1nc2ccccc2n1CCCOc1ccc(Cl)cc1 (centres undefined),"inconclusive: 20 µM [inhibitor, partial curve, poor fit]",–
O=C(COC(=O)c1cccnc1Cl)NCc1ccc(F)cc1,"inconclusive: 10 µM [inhibitor, partial curve]",–
COc1ccc(CCNC(=O)c2ccc(-c3ccc([N+](=O)[O-])cc3)o2)cc1OC,"inconclusive: 17.8 µM [inhibitor, partial curve, poor fit]",–
Cc1ccc(Nc2nc3ccccc3s2)c(C)c1,"inconclusive: 20 µM [inhibitor, single point]",–
Cc1ccc(NC2=C/C(=N\S(=O)(=O)c3cccs3)c3ccccc3C2=O)c(C)c1,"inconclusive: 25.1 µM [inhibitor, partial curve, poor fit]",–
N#C/C(=N\Nc1ccc(Cl)cc1)C(=N)N1CCCCC1,"inconclusive: 39.8 µM [inhibitor, single point]",–
CC1CCCN(C(=O)c2cc3ccc4cccnc4c3[nH]2)C1 (centres undefined),"inconclusive: 14.1 µM [inhibitor, partial curve, poor fit]",–
COC(=O)N(c1ccc(OC)cc1)P1(=S)OCCC(C)O1 (centres undefined),–,inconclusive: -30.7% [inhibitor]

SMILES,Potency,"activity, negative = inhibition"
O=C(OCc1nc2scc(-c3ccccc3)c2c(=O)[nH]1)c1cc([N+](=O)[O-])ccc1Cl,"inconclusive: 39.8 µM [inhibitor, partial curve, poor fit]",–
COc1cccc(CNn2c(-c3cccc(C)c3)nc3ccccc3c2=O)c1O,"inconclusive: 12.6 µM [inhibitor, partial curve]",–
COc1ccc2nc(C)cc(SCC(=O)N/N=C/c3c(OC)ccc4ccccc34)c2c1,inactive,–
CSc1ccc(OC2CCCCC2NS(=O)(=O)c2ccc(Cl)cc2)cc1 (centres undefined),"inconclusive: 17.8 µM [inhibitor, partial curve]",–
Cc1cc(CN(C)C(=O)c2ccc(OC3CCN(Cc4ccccn4)CC3)cc2)on1,"inconclusive: 2.82 µM [inhibitor, full curve]",–
c1ccc2c(c1)oc1c(Nc3ccc(CN4CCOCC4)cc3)ncnc12,"inconclusive: 20 µM [inhibitor, single point]",–
COc1ccc(CCNc2oc(Cc3ccccc3)nc2C#N)cc1OC,"inconclusive: 14.1 µM [inhibitor, partial curve, poor fit]",–
COC(=O)c1c(NC(=O)CN2C(=O)NC3(CCC(C)CC3)C2=O)sc2c1CCC2 (centres undefined),–,inconclusive: -31.5% [inhibitor]
Cc1ccc(OCC(=O)N/N=C\c2c(C)[nH]n(-c3ccccc3)c2=O)c([N+](=O)[O-])c1,"inconclusive: 20 µM [inhibitor, single point]",–
CC[n+]1c(/C=C/N(C)c2ccccc2)n(-c2ccccc2)c2ccc(-c3nc4ccccc4s3)cc21,"inconclusive: 6.31 µM [inhibitor, partial curve, poor fit]",–
Cc1nc(NC(=O)c2cc3ccccc3o2)sc1C,active: 17.8 µM,–
O=S(=O)(Nc1ccc2ccccc2n1)c1ccc2c(c1)CCO2,inactive,–
Cn1c(=O)c2c(nc(N/N=C/c3cccs3)n2Cc2ccccc2)n(C)c1=O,"inconclusive: 25.1 µM [inhibitor, partial curve, poor fit]",–
CC1(C)CC(O)C(CCC(O)c2ccccc2)C(C)(C)N1 (centres undefined),"inconclusive: 3.98 µM [inhibitor, full curve]",–
Cc1ccc2nc(-c3ccc(NS(C)(=O)=O)cc3)cc(-c3ccccc3)c2c1,"inconclusive: 17.8 µM [inhibitor, partial curve, poor fit]",–
CC(Oc1cccnc1[N+](=O)[O-])C(=O)Nc1cccc(Cl)c1 (centres undefined),"inconclusive: 2 µM [inhibitor, full curve]",–
CCc1cccc(NC(=O)C2CCN(S(=O)(=O)c3ccc4c(c3)CC(C)N4C(C)=O)CC2)c1 (centres undefined),"inconclusive: 14.1 µM [inhibitor, partial curve, poor fit]",–
Cn1c(SCC(=O)NCC2CCCO2)nnc1-c1c[nH]c2ccccc12 (centres undefined),inactive,–
CCN(CC)S(=O)(=O)c1cc(C(=O)Nc2ccc(Cl)cn2)ccc1C,"inconclusive: 20 µM [inhibitor, single point]",–

# Some values from the list:
# CSc1ccc(OC2CCCCC2NS(=O)(=O)c2ccc(Cl)cc2)cc1 (centres undefined) – Potency: inconclusive: 17.8 µM [inhibitor, partial curve]
# CCc1cccc(NC(=O)C2CCN(S(=O)(=O)c3ccc4c(c3)CC(C)N4C(C)=O)CC2)c1 (centres undefined) – Potency: inconclusive: 14.1 µM [inhibitor, partial curve, poor fit]
# Cc1ccc2nc(-c3ccc(NS(C)(=O)=O)cc3)cc(-c3ccccc3)c2c1 – Potency: inconclusive: 17.8 µM [inhibitor, partial curve, poor fit]
